Results are given in words; binding and its absence hold for the method and conditions named. In cells and extracts the contact can be indirect. These calls come from enrichment with a bait or labelling near it, and not all partners need be listed.
Biological target: Cdc2-GFP (S. pombe) (UniProt P04551)
Assay: affinity purification with mass spectrometry

Amino acid sequences for entries named in this document (tags omitted).
UniProt P04551: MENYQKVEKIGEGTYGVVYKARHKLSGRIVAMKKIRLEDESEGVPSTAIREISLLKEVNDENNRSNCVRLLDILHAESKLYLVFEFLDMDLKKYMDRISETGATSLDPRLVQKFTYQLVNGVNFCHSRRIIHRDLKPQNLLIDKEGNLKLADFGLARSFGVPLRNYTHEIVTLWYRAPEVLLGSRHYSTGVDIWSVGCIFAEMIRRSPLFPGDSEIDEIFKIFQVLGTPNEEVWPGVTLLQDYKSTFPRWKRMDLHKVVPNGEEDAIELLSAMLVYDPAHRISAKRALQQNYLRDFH

B1: Suc1 (protein, UniProt P08463 1-113)
chain: MSKSGVPRLLTASERERLEPFIDQIHYSPRYADDEYEYRHVMLPKAMLKAIPTDYFNPETGTLRILQEEEWRGLGITQSLGWEMYEVHVPEPHILLFKREKDYQMKFSQQRGG
- binding: binds

B2: Cig1 (protein, UniProt P24865 1-415)
chain: MDVSTQTRHATYFQDENQLQKDHIYVKKKSHIKLNTGVRAPFKAVDNINQQDEPTLIEGNNESSISSSTGDTFEEDFAYQDKVEIEERSIRSTPKSIGDDDLENREGSFDAPEGILTHGKHRLPTIPEWTKEDLAALSEAAARLQANPSPEDIETDPSMVPDYDPEIFHYMQSLERKLAPPPNYMSVQQEIDWVTRHMLVDWIVQVQIHFRLLPETLFLAVNLIDRFLSIKVVSLQKVQLVGLSALLIACKYEEIHPPSIYNFAHVVQGIFTVDEIIRAERYMLMLLDFDISWPGPMSFLRRISRADSYDHDIRMLAKYLQEVTLMDEIFIGAHISFIAATAYYLSMQMLGHLDWTPCHVYYSGYTARQLKPCAIIIMECLVDAPNHHNAIYRKYSENRMKRVSAFAHNWVLSVI
- binding: binds

B3: Cig2 (protein, UniProt P36630 1-411)
chain: MALYSISKPVGSKINKHSYQDENTLVGKQALSKGTEKTKLSTNFEINLPRRTVLSDVSNVGKNNADEKDTKKAKRSFDESNLSTNEEADKPVESKFVKKLKVYSKNADPSVETLQKDRVSNVDDHLSSNPLMAEEYAPEIFEYIRKLDLKCLPNPKYMDQQKELTWKMREILNEWLVEIHSNFCLMPETLYLAVNIIDRFLSRRSCSLSKFQLTGITALLIASKYEEVMCPSIQNFVYMTDGAFTVEDVCVAERYMLNVLNFDLSYPSPLNFLRKISQAEGYDAQTRTLGKYLTEIYLFDHDLLRYPMSKIAAAAMYLSRRLLRRGPWTPKLVESSGGYEEHELKEIAYIMLHYHNKPLEHKAFFQKYSSKRFLKASIFVHQLVRQRYSVNRTDDDDLQSEPSSSLTNDGH
- binding: binds

B4: Cdc13 (protein, UniProt P10815 1-482)
chain: MTTRRLTRQHLLANTLGNNDENHPSNHIARAKSSLHSSENSLVNGKKATVSSTNVPKKRHALDDVSNFHNKEGVPLASKNTNVRHTTASVSTRRALEEKSIIPATDDEPASKKRRQPSVFNSSVPSLPQHLSTKSHSVSTHGVDAFHKDQATIPKKLKKDVDERVVSKDIPKLHRDSVESPESQDWDDLDAEDWADPLMVSEYVVDIFEYLNELEIETMPSPTYMDRQKELAWKMRGILTDWLIEVHSRFRLLPETLFLAVNIIDRFLSLRVCSLNKLQLVGIAALFIASKYEEVMCPSVQNFVYMADGGYDEEEILQAERYILRVLEFNLAYPNPMNFLRRISKADFYDIQTRTVAKYLVEIGLLDHKLLPYPPSQQCAAAMYLAREMLGRGPWNRNLVHYSGYEEYQLISVVKKMINYLQKPVQHEAFFKKYASKKFMKASLFVRDWIKKNSIPLGDDADEDYTFHKQKRIQHDMKDEEW
- binding: binds

B5: Rum1 (protein, UniProt P40380 1-230)
chain: MEPSTPPMRGLCTPSTPESPGSFKGVIDASLEGNSSIMIDEIPESDLPAPQVSTFPPTPAKTPKKQLLPNLMLQDRSNSLERCMEEDREHNPFLSSSDNQLLSRKKRKPTPPPSDGLYYVFRGKRIKKSFRPGTDLSTFKPKLLFADSAPSSSSDNPTSSVDLNDYSQIGILPPNLNSIGNKMFSLKSRVPSSSSGSFVAPPPQMRLPAYSSPQKSRSNTKDENRHNLLR
- binding: binds
